Test results reported in patent US4162248 (dated 1979).

Assay: general procedure: Boc solid-phase peptide synthesis; O-CH2-phi-resin, 0.43 mmole peptide per g

Substance | cyclisation yield (cyclisation step) | step yield (late stage modification step)
Cyclo[Asn-Phe-Phe-D-Trp-(ε-INOC)Lys-O-Bzl-Thr-Phe-O-Bzl-Thr] | 98% | –
Cyclo[Asn-Phe-Phe-D-Trp-(ε-INOC)Lys-Thr-Phe-Thr] | – | 91.5%
